The values below come from article PMC9063202 (2022).

Protein sequences, listed by entry. Tags and fused reporters are not part of them. Lines headed by an entry give the natural chain unless they say otherwise; changes in a name come on top.
UniProt Q8NAU1: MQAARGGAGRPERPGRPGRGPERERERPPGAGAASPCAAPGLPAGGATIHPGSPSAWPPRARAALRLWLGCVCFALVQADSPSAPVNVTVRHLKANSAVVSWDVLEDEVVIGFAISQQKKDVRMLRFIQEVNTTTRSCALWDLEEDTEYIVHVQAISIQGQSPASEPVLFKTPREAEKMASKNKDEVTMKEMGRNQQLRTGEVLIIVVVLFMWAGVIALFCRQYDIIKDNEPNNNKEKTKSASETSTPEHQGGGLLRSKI

The target in the test is T1, TRPC3 overexpressed in 293T cells (UniProt Q13507).
T1 sequence: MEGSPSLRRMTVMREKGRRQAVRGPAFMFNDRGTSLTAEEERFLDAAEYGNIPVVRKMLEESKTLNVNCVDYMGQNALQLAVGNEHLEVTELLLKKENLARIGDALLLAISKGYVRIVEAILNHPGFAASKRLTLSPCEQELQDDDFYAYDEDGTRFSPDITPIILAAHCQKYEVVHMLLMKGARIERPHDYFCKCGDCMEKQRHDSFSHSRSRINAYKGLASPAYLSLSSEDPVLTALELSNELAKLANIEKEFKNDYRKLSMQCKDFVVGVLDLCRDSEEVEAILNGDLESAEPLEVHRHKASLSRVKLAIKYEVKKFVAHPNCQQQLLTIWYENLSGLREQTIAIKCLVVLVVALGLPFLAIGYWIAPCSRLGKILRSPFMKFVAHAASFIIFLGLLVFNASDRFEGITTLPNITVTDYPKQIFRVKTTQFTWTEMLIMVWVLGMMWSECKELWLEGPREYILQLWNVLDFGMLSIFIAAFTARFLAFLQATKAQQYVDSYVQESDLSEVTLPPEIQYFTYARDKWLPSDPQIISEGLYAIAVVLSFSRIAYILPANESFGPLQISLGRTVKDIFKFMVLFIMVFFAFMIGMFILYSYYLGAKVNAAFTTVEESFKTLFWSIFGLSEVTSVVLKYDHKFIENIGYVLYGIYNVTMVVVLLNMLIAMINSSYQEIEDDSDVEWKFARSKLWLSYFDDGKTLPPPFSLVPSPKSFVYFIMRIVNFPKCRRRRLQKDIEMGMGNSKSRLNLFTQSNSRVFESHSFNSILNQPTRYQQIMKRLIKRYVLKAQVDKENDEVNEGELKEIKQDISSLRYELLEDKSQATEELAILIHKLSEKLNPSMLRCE
As to the kind of experiment: co-IP; 293T cells transfected with TRPC3 plasmid and treated with IRISIN protein 100 ng/ul; lysate precipitated with TRPC3 antibody coupled to magnetic beads (Pierce Co-IP kit), 2 h at room temperature; western blot; only the binder purified. (In general: In western blotting, separated proteins are transferred to a membrane and probed.)

Results are given in words; binding and its absence hold for the method and conditions named. Binding seen in cells or lysates may run through a third protein. Binding calls can cover weak binding; strength is not graded here.

For the substance “IRISIN protein (human recombinant IRISIN) (from UniProt Q8NAU1) (ligand)”, the binding entry was “binds”.
